This passage reports binding results from article PMC4525203.

Results are given in words; binding and its absence hold for the method and conditions named. Binding seen in cells or lysates may run through a third protein. Here binding means that the protein was enriched with, or labelled near, the bait; the list need not be complete. Tags and fused reporters may be left off the sequences shown.

To fix the notation:
T1: C-terminally 3xFlag-tagged Esrrb (oestrogen-related receptor beta) (mouse) (UniProt Q61539)
T1 sequence: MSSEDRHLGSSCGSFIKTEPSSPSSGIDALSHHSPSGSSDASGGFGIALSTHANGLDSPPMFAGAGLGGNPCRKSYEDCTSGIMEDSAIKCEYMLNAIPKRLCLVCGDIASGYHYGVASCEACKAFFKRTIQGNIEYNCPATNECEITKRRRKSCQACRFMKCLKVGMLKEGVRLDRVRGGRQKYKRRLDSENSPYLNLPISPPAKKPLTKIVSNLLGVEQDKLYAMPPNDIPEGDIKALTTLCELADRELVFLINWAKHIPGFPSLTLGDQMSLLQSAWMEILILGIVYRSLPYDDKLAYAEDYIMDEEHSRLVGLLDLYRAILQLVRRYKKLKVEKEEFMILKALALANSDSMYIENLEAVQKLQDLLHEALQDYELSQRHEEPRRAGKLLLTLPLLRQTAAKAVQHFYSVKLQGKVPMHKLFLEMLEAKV

B1: Upstream-binding protein 1 (protein, UniProt Q811S7 1-540)
chain: MAWVLSMDEVIESGLVHDFDSSLSGIGQELGAGAYSMSDVLALPIFKQEDSSLSLEDEAKHPPFQYVMCAATSPAVKLHDETLTYLNQGQSYEIRMLDNRKMGDMPELSGKLVKSIIRVVFHDRRLQYTEHQQLEGWKWNRPGDRLLDLDIPMSVGIIDTRTNPSQLNAVEFLWDPAKRTSAFIQVHCISTEFTPRKHGGEKGVPFRIQVDTFKQNENGEYTDHLHSASCQIKVFKPKGADRKQKNDREKMEKRTAHEKEKYQPSYDTTILTEMRLEPIIEDAVEHEQKKSSKRTLPADYGDSLAKRGSCSPWPDTPTAYVNNSPSPAPTFTSSQPSTCSVPDSNSSSPNHQGDGAAQASGEQIQPSATTQETQQWLLKNRFSSYTRLFSNFSGADLLKLTKEDLVQICGAADGIRLYNSLKSRSVRPRLTIYVCQEQPSSTALQGQPQAAGSGGESGGGTPSVYHAIYLEEMVASEVARKLASVFNIPFHQINQVYRQGPTGIHILVSDQMVQNFQDETCFLFSTVKAENNDGIHIILK
B2: Zinc-finger protein 281 (protein, UniProt Q99LI5 1-893)
chain: MKIGSGFLSGGGGPSSSGGSGSGGSSGSASGGSGGGRRAEMEPTFPQSMVMFNHRLPPVTSFTRPAGTAAPPPQCVLSSSTSAAPAAEPPPPPAPDMTFKKEPAASAAAFPSQRTSWGFLQSLVSIKQEKPADPEEQPSHHHHHHHHYGGLFAGAEERSPGLGGGEGGSHGVIQDLSLLHQHAQQQPAQHHRDVLLSSGSRTDEHGNQEPKQDANVKKAKRPKPESQGIKAKRKPSASSKPLVGEGEGAVLSPSQKPHICDHCSAAFRSSYHLRRHVLIHTGERPFQCSQCSMGFIQKYLLQRHEKIHSREKPFGCDQCSMKFIQKYHMERHKRTHSGEKPYKCDTCQQYFSRTDRLLKHRRTCGEAIAKGAASAEPGSSNHNSMGNLAVLSQGNTSSSRRKSKSKSIAIENKEHKTGKTNESQMSNNINMQSYSVEMPTVSTSGSIIGTGIDELQKRVPKLIFKKGSRKNADKSYLNFVSPLPDVVGQKSLSGKPGGSLGIVSNNSVETISLLQSTSGKQGPISSNYDDAMQFSKKRRYLPTASSNSAFSINVGHMVSQQSVIQSAGVSVLDNEAPLSLIDSSALNAEIKSCHDKSGIPDEVLQSILDQYSGKSETQKEDPFNLTEPRVDLHTSGEHSELVQEENLSPGTQTPSNDKTSMLQEYSKYLQQAFEKSTNAGFTLGHGFQFVSLSSPLHNHTLFPEKQIYTTSPLECGFGQSVTSVLPSSLPKPPFGMLFGSQPGLYLSALDATHQQLTPSQELDDLIDSQKNLETSSAFQSSSQKLTSQKEQQKNLESSTSFQIPSQELASQIDPQKDIEPRTTYQIENFAQAFGSQFKSGSRVPMTFITNSNGEVDHRVRTSVSDFSGYTNMMSDVSEPCSTRVKTPTSQSYR
B3: Nuclear receptor subfamily 0 group B member 1 (protein, UniProt Q61066 1-472)
chain: MAGEDHPWQGSILYNLLMSAKQKHASQEEREVRLGAQCWGCACGAQPVLGGERLSGGQARSLLYRCCFCGENHPRQGGILYSMLTNARQPSVATQAPRARFGAPCWGCACGSAEPLVGREGLPAGQAPSLLYRCCFCGEEHPRQGSILYSLLTSAQQTHVSREAPEAHRRGEWWQLSYCTQSVGGPEGLQSTQAMAFLYRSYVCGEEQPQQISVASGTPVSADQTPATPQEQPRAPWWDASPGVQRLITLKDPQVVCEAASAGLLKTLRFVKYLPCFQILPLDQQLVLVRSCWAPLLMLELAQDHLHFEMMEIPETNTTQEMLTTRRQETEGPEPAEPQATEQPQMVSAEAGHLLPAAAVQAIKSFFFKCWSLNIDTKEYAYLKGTVLFNPDLPGLQCVKYIEGLQWRTQQILTEHIRMMQREYQIRSAELNSALFLLRFINSDVVTELFFRPIIGAVSMDDMMLEMLCAKL
B4: Steroid hormone receptor ERR1 (protein, UniProt O08580 1-422)
chain: MSSQVVGIEPLYIKAEPASPDSPKGSSETETEPPVTLASGPAPARCLPGHKEEEDGEGAGSGEQGSGKLVLSSLPKRLCLVCGDVASGYHYGVASCEACKAFFKRTIQGSIEYSCPASNECEITKRRRKACQACRFTKCLRVGMLKEGVRLDRVRGGRQKYKRRPEVDPLPFPGPFPAGPLAVAGGPRKTAPVNALVSHLLVVEPEKLYAMPDPASPDGHLPAVATLCDLFDREIVVTISWAKSIPGFSSLSLSDQMSVLQSVWMEVLVLGVAQRSLPLQDELAFAEDLVLDEEGARAAGLGDLGAALLQLVRRLQALRLEREEYVLLKALALANSDSVHIEDAEAVEQLREALHEALLEYEAGRAGPGGGAERRRAGRLLLTLPLLRQTAGKVLAHFYGVKLEGKVPMHKLFLEMLEAMMD
B5: LINE-1 type transposase domain-containing protein 1 (protein, UniProt Q587J6 1-782)
chain: MSGVQSKAARLQKERKEKLSADRERKTATSLCLKHSEVPASMMKQFNALMEMQEVMFAEMRETYKNDIKEMLLKRTAPWVKHLEERIGQQEGDAISERPKPGEKVEELSSGTDEDTENLTVRSKKGKQDKAKPLNSSHVLKSSLERGGEALRGEHGRCGESSSLVDWKNANEKPAREASCQSEENRLKAPKESPPEGGAGATLRLAADFSAATLDVGRQWSQVFRLLKEKELEPELQCSVKLAFKCDGEANVFSDLHSLRQFTSRKPFLRELLKDVFPQNEGGRRNELRERLGKTLGDTKHEARRIASDSLSFLFIKEVEVASPEVKTYKEETLDRKNKGTLKKQEGEEEEISETQGEETSEGETSELGEEEGSESEEEEESSESEEEEESSESAEEIGFISLVVDSESEEEVNRKTASQTKKKETFHGLKELAFSYLVWDSKKKKLVRCQEGGAAAASTQRIGMPCLTLYLTSPSESLGAGSDGPKSHSCTKLSALSQVTPLLTNIEKGRYKVPQTEEPTAKEADLILETEENFKRGVISVIRQMQREVDKIKNIYVSDVLNMKSSLDDLNSLACTIEARVSEQEDAVEGLTKDTMQLAREIVDKERLREREDRFRSSNIRVIGIPEKENRENGAVDIIKEVIEENFAELEDQSLEIVSAHRVPNSVDEHRLTPRHILVKFGSASDKQRVLKASRAKQEITYRGSKIRLTADLSPGTIDARSQWCGIIKILQDEGFQPRILYPAKLAFDFKGKTKIFFDIEEFKKFISDIPYLKDLLNNIH
B6: Transcription factor CP2-like protein 1 (protein, UniProt Q3UNW5 1-479)
chain: MLFWHTQPEHYNQHNSGSYLRDVLALPIFKQEEPQLSPENGARLPPLQYVLCAATSPAVKLHEETLTYLNQGQSYEIRLLENRKLGDFQDLNTKYVKSIIRVVFHDRRLQYTEYQQLEGWRWSRPGDRILDIDIPLSVGILDPRASPTQLNAVEFLWDPSKRASAFIQVHCISTEFTPRKHGGEKGVPFRVQIDTFKQNESGDYSEHLHSASCQIKVFKPKGADRKQKTDREKMEKRTAQEKEKYQPSYETTILTECSPWPDVPYQANNTPSPSYNGSPNSFGLREGNSSPNHPVEPLPLGSDHLLPSASIQDAQQWLHRNRFSQFCWLFASFSGADLLKMSRDDLVQVCGPADGIRLFNAIKGRNVRPKMTIYVCQELEQNQLPLPQKQDDSGDNSLCVYHAIFLEELTTLELTEKIASLYSIPPQHIHRVYRQGPAGIHVVVSNEMVQNFQDESCFILSTLKAESNDGYHIILKCGL

This experiment has as its target T1, C-terminally 3xFlag-tagged Esrrb (oestrogen-related receptor beta) (mouse). The experiment can be described thus: affinity purification with mass spectrometry; anti-FLAG M2 agarose IP of Esrrb-3xFlag from TS cell nuclear extract dialysed to buffer D (20 mM Hepes pH 7.6, 20% glycerol, 100 mM KCl, 1.5 mM MgCl2, 0.2 mM EDTA), 3 h at 4 °C with Benzonase, elution with FLAG-tripeptide, LC-MS/MS; two biological replicates against vector control.
With B1, the binding result is reported as “binds”.

As to B2, the binding entry is listed as “binds”.

With B3, the binding entry is “binds”.

As to B4, the binding result is reported as “binds”.

For B5, the binding entry is given as “binds”.

In the case of B6, the binding entry was “binds”.
